This note sets out measurements from PubChem BioAssay AID493014 (National Center for Advancing Translational Sciences (NCATS), 2011).

The assay is described as follows: qHTS Assay to Find Inhibitors of Chronic Active B-Cell Receptor Signaling. As to conditions: ABC-DLBCL IkBa-CBG/CBR reporter, luminescence ratio (green luciferase fused to IkBa over red control in TMD8 lymphoma cells), 4 h. A digest of the protocol: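 Compounds up to 46 uM were incubated four hours with TMD8 cells whose green CBG68 luciferase is fused to IkappaBalpha; red CBR luminescence normalised the signal, and concentration-effect curves were fitted to fusion, red and ratio data.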
(qHTS replaces the single test concentration by a dilution series.)

Setting [1] is: measured here: IkBa-CBG green luminescence.
Setting [2] is: measured here: CBR red luminescence, cell number.

Each structure is given as a SMILES string. Some of the results follow. Further columns of the screen follow, without active or inactive calls. The list favours compounds with an active or inconclusive main result. Potencies come from curve fits of mixed quality, noted in brackets.

As for `Oc1c(I)cc(Cl)c2cccnc12`, the concentration at half-maximal activity (AC50) under setting [1] is 5.17 µM [falling, partial curve, poor fit].
For `Nc1ccccc1C(=O)NCC1(c2ccccc2)CCCC1`, under setting [2], the concentration at half-maximal activity (AC50) is 2.24 µM [rising, partial curve, poor fit].
With `Cc1cc(-c2ccn[nH]2)c(C)s1`, the AC50 under setting [2] was 1.12 µM [falling, full curve, poor fit].
On to `CCc1ccc(-n2c(SCC(=O)c3ccc4c(c3)NC(=O)CO4)nc3ccccc3c2=O)cc1`, for which the AC50 under setting [2] is 35.5 µM [rising, single point].
Turning to `Cc1ccc(NC(=O)CC2OC(=O)c3ccccc32)cc1S(=O)(=O)N1CCOCC1` (stereo not given), the AC50 under setting [2] was 20.6 µM [rising, partial curve, poor fit].
With `CCCCc1nc(SCc2ccc([N+](=O)[O-])cc2)n[nH]1`, the AC50 under setting [2] is 35.5 µM [rising, single point].
For the compound `O=C(N/N=C/C=C/c1ccccc1)c1cccnc1`, the half-maximal activity concentration (AC50) under setting [2] is 8.91 µM [falling, partial curve, poor fit].
Regarding `CC(C)c1ccc(-c2csc3ncnc(N4CCN(C)CC4)c23)cc1`, the AC50 under setting [2] was 35.5 µM [falling, single point].
For the compound `C/C(=N\NC(=O)c1ccccc1)C1C2C=CC(C2)C1(C)C` (stereo not given), the AC50 under setting [2] is 2.51 µM [falling, full curve].
Same read-out and setting: to `C=C(C)COc1ccc(-c2[nH]ncc2-c2ccc(Br)cc2)c(O)c1` belongs 20.6 µM [rising, partial curve, poor fit].
For `O=C(CNC(=O)c1ccccc1Br)N/N=C/c1cccs1`, the AC50 under setting [2] was 6.31 µM [falling, full curve, poor fit].
In the case of `CCOc1ccc(Nc2nc3ccccc3n3nnnc23)cc1`, under setting [2], the AC50 was 0.501 µM [falling, full curve, poor fit].
Take `Cc1sc2ncnc(N3CCC(C(=O)Nc4ccc(S(N)(=O)=O)cc4)CC3)c2c1C`: the AC50 under setting [2] is 16.4 µM [falling, single point].
Take `CC1CCC(C(C)C)C(OCC(O)CNC(C)c2ccccc2)C1` (stereo not given): the AC50 under setting [2] was 15.8 µM [falling, single point].
Take `O=C(CNc1ccccc1F)Nc1cccc2ccccc12`: under setting [2], the AC50 is 0.562 µM [falling, full curve].
For `Cc1cc(C)n(-c2nnc3n2N=C(c2c[nH]c4ccccc24)CS3)n1`, the AC50 under setting [1] is 29.1 µM [falling, single point].
On to `CCn1c(C)nc2cc(C(=O)NNC(=S)NC(=O)c3ccc(OC)cc3)ccc21`, for which the AC50 under setting [2] is 35.5 µM [rising, single point].
Consider `CC(C)COc1cccc(C(=O)NC(=S)NCc2cccnc2)c1`, for which the AC50 under setting [2] is 14.6 µM [falling, single point].
With `CC(C)C[C@H](NC(=O)[C@@H]1Cc2ccccc2CN1)C(=O)Nc1ccc(C(C)C)cc1`, under setting [2], the AC50 is 0.501 µM [rising, full curve, poor fit].
With `Cc1oc(-c2ccc3c(c2)OCCO3)cc1C(=O)NC(Cc1ccccc1)C(=O)O` (stereo not given), the AC50 under setting [1] is 10 µM [rising, partial curve, poor fit].
In the case of `Cc1ccc(-c2csc(N3CCC[C@@H]3C(=O)NCCn3c(C(F)(F)F)nc4ccccc43)n2)cc1`, the AC50 under setting [2] is 8.91 µM [falling, partial curve, poor fit].
On to `CCOc1ccccc1NC(=O)c1nc(S(=O)(=O)Cc2ccccc2)ncc1Cl`, for which the AC50 under setting [2] is 10 µM [falling, partial curve, poor fit].
As to `Cc1cccc2cc(C(c3nnnn3Cc3ccccc3)N3CCN(c4ccccc4)CC3)c(=O)[nH]c12` (stereo not given), under setting [2], the AC50 is 0.291 µM [rising, full curve].
Same read-out and setting: next, `CC(=O)c1cccc(N(CC(=O)N2CCCCC2)S(C)(=O)=O)c1`: 0.00461 µM [falling, full curve, poor fit]; `CC(C)Cc1nnc(NC(=O)c2ccc3c(c2)NC(=O)C(C)S3)s1` (stereo not given): 7.31 µM [rising, partial curve, poor fit].
Take `CCOc1ccc2c(c1)C(C)=CC(C)(C)N2C(=O)Nc1ccccc1`: the AC50 under setting [2] was 18.4 µM [falling, single point].
With `COc1ccc2oc(C(=O)Nc3ccc(S(=O)(=O)N(C)C4CCN(C)CC4)cc3)c(C)c2c1`, the AC50 under setting [2] is 20 µM [falling, partial curve, poor fit].
For the compound `COc1ccccc1CNC(=O)/C=C/c1ccc(S(=O)(=O)N2CCOCC2)cc1`, under setting [2], the AC50 was 0.631 µM [rising, partial curve, poor fit].
Still for that read-out and setting: to `O=C(O)CCN1C(=O)CC2(CCCCC2)C1=O` belongs 23.1 µM [rising, partial curve, poor fit]; to `CC(=O)c1cccc(NC(=O)C(OC(=O)/C=C/c2ccc3c(c2)OCO3)c2ccccc2)c1` (stereo not given), 11.6 µM [rising, partial curve, poor fit].
Turning to `Cn1nnnc1Sc1ncnc2scc(-c3ccc(Br)cc3)c12`, the AC50 was 3.26 µM [rising, single point] under setting [2] and 5.17 µM [falling, single point] under setting [1].
Take `O=C(Oc1cc(=O)oc2ccccc12)c1cccnc1Cl`: the AC50 under setting [2] is 2.31 µM [falling, partial curve].
On the same count and under the same terms, next, `Cc1cccc(N(C(=O)c2snc(C(N)=O)c2N)C(C(=O)NCc2ccccc2)c2ccncc2)c1` (stereo not given): 0.562 µM [rising, full curve]; `Cc1cc(-n2c(C)cc(C(=O)COc3cc(F)ccc3[N+](=O)[O-])c2C)no1`: 29.1 µM [rising, single point]; `O=C(NC1CCCCCC1)c1ccc([N+](=O)[O-])s1`: 29.1 µM [falling, single point].
Take `O=[N+]([O-])c1ccc(-c2ncc(-c3ccc(Br)cc3)o2)cc1`: the AC50 under setting [2] was 1 µM [rising, partial curve].
As for `Cc1nc2ccccc2c(=O)n1/N=C/c1ccccc1`, the half-maximal activity concentration (AC50) under setting [2] was 35.5 µM [falling, single point].
Same read-out and setting: next, `CC1CCN(C(=O)COC(=O)c2cc3ccccc3cc2O)CC1`: 10 µM [falling, partial curve].
On to `COC(=O)c1ccccc1NC(=O)Nc1ccc(Br)cn1`, for which, under setting [2], the AC50 is 14.1 µM [falling, partial curve, poor fit].
As for `COc1ccccc1C1C(C(N)=O)=C(C)Nc2nc(CCCO)nn21` (stereo not given), the half-maximal activity concentration (AC50) under setting [2] is 11.2 µM [rising, partial curve, poor fit].
Consider `Cc1ccc2nc(C(=O)O)c(C(=O)O)nc2c1`, for which the AC50 under setting [2] is 29.1 µM [rising, single point].
Turning to `COc1cc(C)nc(N2CCC(C(=O)NC3CCCCC3)CC2)n1`, under setting [2], the concentration at half-maximal activity (AC50) was 10.3 µM [rising, single point].
On to `CCOc1cccc2cc(-c3nnc(Nc4ccc(F)c(Cl)c4)s3)c(=O)oc12`, for which the AC50 under setting [2] is 10 µM [falling, partial curve, poor fit].
On the same count and under the same terms, next, `Cc1ccc(C)c(S(=O)(=O)N2CCC(c3nc4c(nnn4Cc4ccc5c(c4)OCCO5)c(=O)[nH]3)CC2)c1`: 11.2 µM [falling, partial curve]; `CCCCN(C(=O)NC(=O)Nc1ccccc1OC)S(C)(=O)=O`: 35.5 µM [rising, single point].
As to `CCC(=O)Nc1ccc(S(=O)(=O)NCc2ccco2)cc1`, the concentration at half-maximal activity (AC50) under setting [2] was 0.517 µM [falling, full curve, poor fit].
As for `O=C(NCc1ccc(F)cc1)c1cc2c(s1)CCCC2`, the AC50 under setting [2] was 1.84 µM [rising, partial curve, poor fit].
In the case of `O=S(=O)(Nc1nnc(C2CC2)s1)c1ccccc1`, the AC50 under setting [2] was 22.4 µM [falling, single point].
In the case of `CCC(C)Sc1ccc(-c2nc3cnccn3c2NC2CCCCC2)cc1` (stereo not given), the half-maximal activity concentration (AC50) under setting [2] is 16.4 µM [rising, partial curve, poor fit].
On to `O=C(NCc1ccco1)c1cc(-c2cccs2)on1`, for which the AC50 under setting [2] was 10 µM [falling, partial curve, poor fit].
In the case of `Cc1ccc(S(=O)(=O)c2c(N)n(Cc3ccco3)c3nc4ccccc4nc23)cc1`, under setting [2], the AC50 was 8.91 µM [falling, partial curve].
Turning to `CC1CCCC(NS(=O)(=O)c2cc(Br)cnc2N)C1C` (stereo not given), the AC50 under setting [2] was 15.8 µM [rising, partial curve, poor fit].
For `CCn1ccc(C(=O)Nc2cccc(Cl)c2)n1`, the AC50 under setting [2] is 2.51 µM [rising, partial curve, poor fit].
On to `CCn1nnc2cc(C(=O)OCC(=O)N(C)Cc3cccc(F)c3)ccc21`, for which the AC50 under setting [2] was 29.1 µM [rising, single point].
With `Cc1ccccc1NC(=O)CSC(=O)c1ccccc1`, the AC50 under setting [1] is 25.9 µM [falling, single point].
For `COc1ccc(C(=O)COC(=O)c2cc(S(=O)(=O)N3CCCCC3)ccc2N2CCOCC2)c(OC)c1`, the AC50 under setting [2] was 29.1 µM [rising, single point].
Regarding `CCOC(=O)c1ccc(S(=O)(=O)NC2CCC(C)CC2)cc1` (stereo not given), the AC50 under setting [2] was 0.082 µM [rising, full curve, poor fit].
For the compound `O=C1NC(Cc2ccccc2)c2nc3cc(F)ccc3c(=O)n2-c2cc(Cl)ccc21` (stereo not given), under setting [2], the AC50 is 0.731 µM [rising, full curve].
As for `CC1CCCCC1NC(=O)COC(=O)c1ccc(S(=O)(=O)NCc2ccco2)cc1` (stereo not given), the AC50 under setting [2] was 3.66 µM [falling, single point].
For `O=C1/C(=C/c2cccs2)SC(=S)N1NS(=O)(=O)c1ccccc1`, the AC50 under setting [2] was 6.31 µM [falling, full curve, poor fit].
Turning to `C=C1CC(C(=O)N/N=C/c2ccccc2)C1`, the AC50 under setting [2] is 16.4 µM [falling, single point].
In the case of `COc1ccc(-c2cc(=O)c3cc(OC)ccc3o2)cc1`, the AC50 under setting [2] was 0.398 µM [rising, full curve, poor fit].
`COc1ccc(CC(=O)Nc2cccc(C(C)=O)c2)cc1S(=O)(=O)N1CCOCC1`: the concentration at half-maximal activity (AC50) under setting [2] was 0.461 µM [rising, full curve, poor fit].
In the case of `Cc1ccsc1C(=O)NNC(=O)c1ccccc1F`, under setting [2], the AC50 is 11.6 µM [falling, partial curve].

What is called AC50 is the midpoint of the concentration-response curve, whichever way the signal moves.
